Assay results: US4478827A, “Renin inhibitors” (The General Hospital Corporation, priority 1983, dated 1984)
Not every detail of the peptide structures is certain; ends, links or a residue may be inferred. Where a SMILES comes first, the peptide text is derived from it. [ ]: non-standard residue; d: D form.

Protein sequences, listed by entry. Tags and fused reporters are not part of them. Residues count along the entry.
UniProt P12821, 30-1306, species assumed: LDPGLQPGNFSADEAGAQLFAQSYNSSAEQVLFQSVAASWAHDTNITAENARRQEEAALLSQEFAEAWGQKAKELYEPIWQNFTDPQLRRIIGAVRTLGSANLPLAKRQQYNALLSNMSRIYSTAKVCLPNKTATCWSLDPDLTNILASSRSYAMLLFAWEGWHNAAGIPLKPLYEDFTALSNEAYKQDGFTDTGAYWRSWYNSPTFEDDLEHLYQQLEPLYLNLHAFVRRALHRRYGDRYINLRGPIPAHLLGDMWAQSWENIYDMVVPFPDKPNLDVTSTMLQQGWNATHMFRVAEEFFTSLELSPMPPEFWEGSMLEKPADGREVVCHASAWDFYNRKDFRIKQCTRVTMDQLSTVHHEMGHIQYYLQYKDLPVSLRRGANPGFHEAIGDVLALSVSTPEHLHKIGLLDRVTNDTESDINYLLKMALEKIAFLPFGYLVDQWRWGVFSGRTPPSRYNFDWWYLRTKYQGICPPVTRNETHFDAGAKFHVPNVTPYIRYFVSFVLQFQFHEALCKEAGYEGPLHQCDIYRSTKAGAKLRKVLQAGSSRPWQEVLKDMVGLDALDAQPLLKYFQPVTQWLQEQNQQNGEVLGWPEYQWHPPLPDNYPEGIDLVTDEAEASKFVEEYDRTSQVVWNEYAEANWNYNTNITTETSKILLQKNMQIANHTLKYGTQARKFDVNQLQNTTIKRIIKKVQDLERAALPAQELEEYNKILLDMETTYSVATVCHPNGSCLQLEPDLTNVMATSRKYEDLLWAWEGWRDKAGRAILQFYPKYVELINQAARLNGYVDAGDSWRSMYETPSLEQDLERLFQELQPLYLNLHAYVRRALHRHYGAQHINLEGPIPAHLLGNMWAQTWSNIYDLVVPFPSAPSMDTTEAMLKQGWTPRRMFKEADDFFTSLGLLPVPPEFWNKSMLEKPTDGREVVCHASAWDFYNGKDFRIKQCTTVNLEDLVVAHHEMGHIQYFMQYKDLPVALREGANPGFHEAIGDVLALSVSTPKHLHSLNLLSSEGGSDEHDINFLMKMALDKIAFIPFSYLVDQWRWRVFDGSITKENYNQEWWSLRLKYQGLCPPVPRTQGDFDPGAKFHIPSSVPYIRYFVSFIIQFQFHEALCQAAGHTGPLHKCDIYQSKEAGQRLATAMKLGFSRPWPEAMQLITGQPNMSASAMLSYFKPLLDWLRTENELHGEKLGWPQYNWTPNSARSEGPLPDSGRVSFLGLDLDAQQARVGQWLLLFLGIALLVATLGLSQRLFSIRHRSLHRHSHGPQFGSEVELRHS

How the values were obtained:
[1] = system: renin dependent hypertension; experiment: Acute renovascular hypertension model (suprarenal aortic cuff), infusion of D-RIP; format: in vivo, Macaca fascicularis; conditions: cuff inflated, sodium replete
converting enzyme = converting enzyme (Homo sapiens, UniProt P12821); experiment: Inhibition of converting enzyme; format: biochemical
[2] = biological target: angiotensin converting enzyme (Homo sapiens, UniProt P12821); experiment: Substrate for converting enzyme; format: biochemical; conditions: in vitro

SMILES	Blood Pressure ([1]; + D-RIP 1.0 hr)	Heart Rate ([1]; + D-RIP 1.0 hr)	Blood Pressure ([1]; + D-RIP 2.0 hr)	Heart Rate ([1]; + D-RIP 2.0 hr)	Blood Pressure ([1]; + D-RIP 3.0 hr)	Heart Rate ([1]; + D-RIP 3.0 hr)	Blood Pressure ([1]; + D-RIP 4.0 hr)	Heart Rate ([1]; + D-RIP 4.0 hr)	Inhibition of converting enzyme (converting enzyme)	substrate for angiotensin converting enzyme [2]
CC(C)[C@H](NC(=O)[C@H](Cc1ccccc1)NC(=O)[C@H](Cc1ccccc1)NC(=O)[C@H](Cc1c[nH]cn1)NC(=O)[C@H](Cc1ccccc1)NC(=O)[C@@H]1CCCN1C(=O)[C@H](Cc1c[nH]cn1)NC(=O)[C@@H]1CCCN1)C(=O)N[C@@H](Cc1ccc(O)cc1)C(=O)N[C@H](CCCCN)C(=O)O [D-RIP, Pro-His-Pro-Phe-His-Phe-Phe-Val-Tyr-D-Lys] (H-PHPFHFFVY[dK]-OH)	118 Torr	155 bpm	116 Torr	145 bpm	115 Torr	140 bpm	116 Torr	135 bpm	does not inhibit	
CC(C)[C@H](NC(=O)[C@H](Cc1ccccc1)NC(=O)[C@H](Cc1ccccc1)NC(=O)[C@H](Cc1c[nH]cn1)NC(=O)[C@H](Cc1ccccc1)NC(=O)[C@@H]1CCCN1C(=O)[C@H](Cc1c[nH]cn1)NC(=O)[C@@H]1CCCN1)C(=O)N[C@@H](Cc1ccc(O)cc1)C(=O)N[C@@H](CCCCN)C(=O)O [RIP, Pro-His-Pro-Pre-His-Phe-Phe-Val-Tyr-Lys, reference compound] (H-PHPFHFFVYK-OH)									to a small degree	substrate for angiotensin converting enzyme
